Measured values: PMC5719404
No constants are given. Whether binding was seen depends on the method and setting. Binding seen in cells or lysates may run through a third protein. Some binding calls cover weakened binding; strength is not graded here. Where a sequence is shown, tags or fusion partners need not be part of it.

Key:
[1] = biological target: T1, Ssb3-YFP (Schizosaccharomyces pombe) (UniProt Q92374); test: co-IP; S. pombe lysate in EB buffer (50 mM HEPES, 50 mM KOAc pH 7.5, 5 mM EGTA, 1% triton X-100), treated with 250 mU/µl benzonase for 30 min; anti-GFP antibody and Protein G Dynabeads, 4 °C; Pku70-HA detected by anti-HA Western blot
T1 sequence: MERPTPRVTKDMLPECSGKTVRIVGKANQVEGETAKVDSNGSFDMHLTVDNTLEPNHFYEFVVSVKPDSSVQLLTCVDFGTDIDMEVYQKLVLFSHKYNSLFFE

[2] = biological target: T2, Rad11-YFP (Schizosaccharomyces pombe) (UniProt Q92372); test: as above
T2 sequence: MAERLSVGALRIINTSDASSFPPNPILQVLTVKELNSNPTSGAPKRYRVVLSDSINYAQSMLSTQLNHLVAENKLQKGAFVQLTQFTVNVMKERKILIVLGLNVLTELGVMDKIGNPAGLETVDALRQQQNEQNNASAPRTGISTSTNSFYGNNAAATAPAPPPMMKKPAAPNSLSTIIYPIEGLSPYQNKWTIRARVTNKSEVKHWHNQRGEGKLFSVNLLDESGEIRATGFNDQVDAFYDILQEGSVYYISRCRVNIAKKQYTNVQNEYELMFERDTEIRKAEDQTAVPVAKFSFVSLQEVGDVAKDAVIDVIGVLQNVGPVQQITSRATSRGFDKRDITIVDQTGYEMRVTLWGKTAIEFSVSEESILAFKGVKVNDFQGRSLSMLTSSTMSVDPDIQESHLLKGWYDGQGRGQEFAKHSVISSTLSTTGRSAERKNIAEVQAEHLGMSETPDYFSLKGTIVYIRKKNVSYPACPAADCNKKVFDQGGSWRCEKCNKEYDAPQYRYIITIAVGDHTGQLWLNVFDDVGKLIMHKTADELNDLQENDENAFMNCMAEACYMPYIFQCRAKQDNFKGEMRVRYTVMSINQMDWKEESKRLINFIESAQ

B1: Pku70-HA (protein, UniProt O94395 1-607)
chain: MENDEQIDETENFAIGKYAILFVIEVSPSMLDPVDEFTPSSLQMALICAYQLAAQRVITNPSDIMGVLLYGTESSTGRFANQMMLLDIDPPDAERIKSLQSFEKDFQFSKEKFKPCSCQVSLSSVLYHCSVIFTTKAENFEKRLFLITDNDHPAWDATERDIILQRAKDLRDLDIQVHPVFLDPPTHSFRINIFYSDFLYIVYGRQDVSNLVNRGQAQLQHMLNMITALQKPKRAHFHLKMDLGNDVRIGVEAFILLKRLESAKTNWVYAKGERFAVAVPQSKQVSFATKKELKKDEIRRSYSYGGSSVVFGSDELNKVRSFEPPTLRIIGFRDFSTLKPWHCLKPAVFLRPKDDEIIGSGAVFSAIHKKLLASNKIGIAWFVSRPNANPCFVAMLATPGSIHIRDDFELPLGIFLVQLPTADDIRSLPPINPNPISMPSNLIETMQRILRGMELRSYQPGKYNNPSLQWHYKVLQALALDEEIPTDFVDNTLPKYKAIQKRVGEYMGDVNNIVAEYRNDISDKNGIKEEEEDQGPIVKKARIEKSGKPIFAEDDRLKQLYIEGVLDKEIKALKVSQLKDILRDRGLRVSGKKADLLDNLTNYVKKL
binding [1]: binds | binding [2]: binds
